Assay results: paper PMC12025393, “Neuregulin-1 (NRG1) Binds to the Allosteric Binding Site (Site 2) and Suppresses Allosteric Integrin Activation by Inflammatory Cytokines: A Potential Mechanism of Anti-Inflammatory and Anti-Fibrosis Action of NRG1” (Cells, 2025)
These are yes or no findings as the source states them, for the method shown. Some entries that bind do so weakly or less than the wild type. Tags and fused reporters may be left off the sequences shown.

Sequences of proteins named here, by UniProt entry; tags and fusion partners are left off. A change or cut given only in a name is not applied to a line headed by its entry.
UniProt P08514: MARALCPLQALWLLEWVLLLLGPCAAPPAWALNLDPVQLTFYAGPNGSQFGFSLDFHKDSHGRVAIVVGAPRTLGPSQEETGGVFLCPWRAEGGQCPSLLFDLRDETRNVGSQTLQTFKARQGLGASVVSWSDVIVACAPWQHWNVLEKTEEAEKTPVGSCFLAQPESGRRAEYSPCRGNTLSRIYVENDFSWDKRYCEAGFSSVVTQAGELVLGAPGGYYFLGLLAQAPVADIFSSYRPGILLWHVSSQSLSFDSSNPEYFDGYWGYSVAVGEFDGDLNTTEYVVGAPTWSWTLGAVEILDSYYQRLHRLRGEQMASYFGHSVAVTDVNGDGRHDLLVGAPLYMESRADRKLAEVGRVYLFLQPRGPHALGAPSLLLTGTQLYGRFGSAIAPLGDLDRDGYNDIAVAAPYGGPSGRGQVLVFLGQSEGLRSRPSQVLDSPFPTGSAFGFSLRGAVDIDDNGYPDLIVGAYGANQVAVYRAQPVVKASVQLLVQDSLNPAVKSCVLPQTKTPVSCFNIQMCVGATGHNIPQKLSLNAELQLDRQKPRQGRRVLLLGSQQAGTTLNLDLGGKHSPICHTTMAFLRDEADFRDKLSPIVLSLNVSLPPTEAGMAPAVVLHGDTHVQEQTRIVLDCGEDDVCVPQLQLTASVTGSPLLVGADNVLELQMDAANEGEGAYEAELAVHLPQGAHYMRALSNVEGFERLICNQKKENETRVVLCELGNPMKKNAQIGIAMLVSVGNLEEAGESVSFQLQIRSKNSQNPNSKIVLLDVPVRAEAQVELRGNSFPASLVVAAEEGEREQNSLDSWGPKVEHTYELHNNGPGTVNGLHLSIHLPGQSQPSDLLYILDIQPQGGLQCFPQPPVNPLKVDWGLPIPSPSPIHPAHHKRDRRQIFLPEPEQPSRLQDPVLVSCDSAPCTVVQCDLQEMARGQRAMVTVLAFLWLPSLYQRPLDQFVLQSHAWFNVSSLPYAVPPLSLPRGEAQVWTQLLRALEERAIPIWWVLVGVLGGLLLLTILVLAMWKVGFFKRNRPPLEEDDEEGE

Assays:
[1] = biological target: cell-surface integrin αIIbβ3 on CHO cells (UniProt P08514); experiment: flow cytometry on cells; αIIbβ3-CHO cells in HEPES-Tyrodes buffer/0.02% BSA with 1 mM Ca2+, chemokines (0.1 μg/mL) 30 min on ice with or without NRG1 3KE (20 μg/mL), then FITC-labeled γC390-411 (50 μg/mL) 60 min at room temperature; mean fluorescent intensity; only the binder purified
WT NRG1 EGF-like domain = biological target: T1, WT NRG1 EGF-like domain; experiment: ELISA; NRG1 (20 μg/mL in PBS) immobilised to wells, blocked with 0.1% BSA; peptides fused to GST in PBS/Tween20 (0.05%), 1 h at room temperature; HRP-conjugated anti-GST antibody; signals with scrambled β3 site 2 peptide subtracted; both purified
T1 construct: also called NRG1 EGF domain; neuregulin-1; source: endotoxin-free E. coli BL21 (DE3) pLysS Clear-coli, purified (Ni-NTA in 8M urea, re-folded)
T1 chain: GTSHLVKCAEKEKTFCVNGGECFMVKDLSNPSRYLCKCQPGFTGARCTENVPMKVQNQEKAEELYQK

Binder: NRLTIGEGQQHHLGGAKQAGDV (FITC label (site not stated)) [FITC-labeled γC390-411 fused to GST]
- binding [1]: binds

Binder: CKLGGIVLPNDGQSHLENNMYTMSHYYC (cyclic (disulfide between C268 and C295, as designed for the β3 peptide)) [28-mer cyclic β1 peptide fused to GST]
- binding (WT NRG1 EGF-like domain): binds weakly
